Source: paper PMC9072678
No constants are given. Whether binding was seen depends on the method and setting. In cells and extracts the contact can be indirect.

The chains behind the UniProt entries cited, without tags or fusion partners.
UniProt Q96LD4: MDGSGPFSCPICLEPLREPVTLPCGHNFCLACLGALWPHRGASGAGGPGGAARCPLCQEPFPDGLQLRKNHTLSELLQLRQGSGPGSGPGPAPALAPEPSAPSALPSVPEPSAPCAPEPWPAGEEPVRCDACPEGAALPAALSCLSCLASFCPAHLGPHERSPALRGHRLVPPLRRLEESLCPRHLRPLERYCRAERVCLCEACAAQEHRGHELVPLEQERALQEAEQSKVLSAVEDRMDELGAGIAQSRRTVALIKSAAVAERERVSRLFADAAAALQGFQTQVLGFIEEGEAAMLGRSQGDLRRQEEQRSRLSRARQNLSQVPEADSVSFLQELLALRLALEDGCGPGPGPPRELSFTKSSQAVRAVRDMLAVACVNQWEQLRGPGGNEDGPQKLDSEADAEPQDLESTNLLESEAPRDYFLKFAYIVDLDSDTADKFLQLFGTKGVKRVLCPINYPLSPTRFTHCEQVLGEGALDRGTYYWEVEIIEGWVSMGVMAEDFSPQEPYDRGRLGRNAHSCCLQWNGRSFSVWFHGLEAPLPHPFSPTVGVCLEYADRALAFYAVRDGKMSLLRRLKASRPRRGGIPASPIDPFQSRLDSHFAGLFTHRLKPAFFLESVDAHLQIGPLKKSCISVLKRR
UniProt Q9Y6K9: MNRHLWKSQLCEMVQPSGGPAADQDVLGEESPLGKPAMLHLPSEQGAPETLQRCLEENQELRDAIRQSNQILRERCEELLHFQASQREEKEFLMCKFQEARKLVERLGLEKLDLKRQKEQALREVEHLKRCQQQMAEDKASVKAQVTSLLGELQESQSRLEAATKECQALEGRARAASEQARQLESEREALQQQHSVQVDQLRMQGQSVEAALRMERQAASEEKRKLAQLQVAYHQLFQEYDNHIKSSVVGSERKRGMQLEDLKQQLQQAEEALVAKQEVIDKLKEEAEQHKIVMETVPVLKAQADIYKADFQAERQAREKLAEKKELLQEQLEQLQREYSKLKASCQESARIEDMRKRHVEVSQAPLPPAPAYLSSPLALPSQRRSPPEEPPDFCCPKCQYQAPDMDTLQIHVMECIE
UniProt P25963: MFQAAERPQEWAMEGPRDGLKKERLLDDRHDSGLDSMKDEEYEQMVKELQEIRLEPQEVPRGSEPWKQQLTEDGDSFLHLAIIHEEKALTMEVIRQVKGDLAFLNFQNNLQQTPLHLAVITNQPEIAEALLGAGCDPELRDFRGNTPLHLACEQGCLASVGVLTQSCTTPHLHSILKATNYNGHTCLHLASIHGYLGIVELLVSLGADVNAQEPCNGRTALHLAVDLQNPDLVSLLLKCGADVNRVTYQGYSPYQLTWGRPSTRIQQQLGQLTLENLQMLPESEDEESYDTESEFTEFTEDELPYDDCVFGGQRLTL

Biological target: Flag-TRIM47 (human) (UniProt Q96LD4)
Experiment: co-IP; HUVECs transfected with Flag or Flag-TRIM47 plasmid for 48 h, MG132 10 μM for 1 h before harvesting, TNFα 10 ng/mL for 15 min; whole-cell lysates immunoprecipitated with Flag antibody, protein G-agarose (2 h, 4 °C); precipitates immunoblotted

Row | Molecule | binding
1 | IKKγ (from UniProt Q9Y6K9 1-419) | no binding
2 | IκBα (from UniProt P25963 1-317) | no binding
3 | TAK1 (protein, UniProt O43318 1-606) MSTASAASSSSSSSAGEMIEAPSQVLNFEEIDYKEIEVEEVVGRGAFGVVCKAKWRAKDVAIKQIESESERKAFIVELRQLSRVNHPNIVKLYGACLNPVCLVMEYAEGGSLYNVLHGAEPLPYYTAAHAMSWCLQCSQGVAYLHSMQPKALIHRDLKPPNLLLVAGGTVLKICDFGTACDIQTHMTNNKGSAAWMAPEVFEGSNYSEKCDVFSWGIILWEVITRRKPFDEIGGPAFRIMWAVHNGTRPPLIKNLPKPIESLMTRCWSKDPSQRPSMEEIVKIMTHLMRYFPGADEPLQYPCQYSDEGQSNSATSTGSFMDIASTNTSNKSDTNMEQVPATNDTIKRLESKLLKNQAKQQSESGRLSLGASRGSSVESLPPTSEGKRMSADMSEIEARIAATTAYSKPKRGHRKTASFGNILDVPEIVISGNGQPRRRSIQDLTVTGTEPGQVSSRSSSPSVRMITTSGPTSEKPTRSHPWTPDDSTDTNGSDNSIPMAYLTLDHQLQPLAPCPNSKESMAVFEQHCKMAQEYMKVQTEIALLLQRKQELVAELDQDEKDQQNTSRLVQEHKKLLDENKSLSTYYQQCKKQLEVIRSQQQKRQGTS | no binding
